Experiment [1] deals with T1, GPR20 fragment peptide GLEVPLFHLFARLDEELHGT (human, N-terminally biotinylated and C-terminally amidated).
T1 construct: Captured on streptavidin sensor chips; also called peptide consisting of amino acid positions 29 to 48 of GPR20
T1 peptide: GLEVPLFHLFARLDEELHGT
The experiment is described as follows: BLI (Octet RED384), peptide on streptavidin sensor, antibody as analyte.

By UniProt entry, the sequences of proteins in these tests, tags left out. Where a name states a change or a piece, a line headed by the entry shows the natural chain unless it says otherwise.
UniProt Q99678: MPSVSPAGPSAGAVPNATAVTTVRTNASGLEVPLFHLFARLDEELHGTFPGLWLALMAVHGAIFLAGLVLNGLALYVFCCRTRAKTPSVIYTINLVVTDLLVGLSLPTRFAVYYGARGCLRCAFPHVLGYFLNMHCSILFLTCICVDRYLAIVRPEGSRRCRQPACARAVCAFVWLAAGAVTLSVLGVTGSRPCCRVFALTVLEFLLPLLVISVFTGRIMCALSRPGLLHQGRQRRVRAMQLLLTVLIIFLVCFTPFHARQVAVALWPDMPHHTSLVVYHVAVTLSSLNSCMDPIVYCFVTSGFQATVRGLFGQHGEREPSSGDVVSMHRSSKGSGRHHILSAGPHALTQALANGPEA

The target in experiment [2] is N-terminally FLAG-tagged human GPR20 (human) (UniProt Q99678). In words: Western blot of membrane fractions of transfected 293T cells, reducing SDS-PAGE.
For experiment [3] the target is unchanged. In words: Western blot of membrane-fraction protein, 20 µg/lane, reducing SDS-PAGE, IRDye anti-rabbit IgG.

Changes are numbered by the printed parent chain. Read-outs that look alike come from different tables or passages of the source. Results are given in words; binding and its absence hold for the method and conditions named. Some binding calls cover weakened binding; strength is not graded here.

B1: rat anti-human GPR20 antibody 04-093 (antibody, rat IgG2b)
heavy: EVQLVESGGGLVQPGRSLKLSCVASGFTFNNYWMTWIRQAPGKGLEWVASITNIDGSSYYPDSVKGRFTISRDNVKSTLYLQMNSLRSEDTATYYCTRGSFDYWGQGVMVTVSSAQTTAPSVYPLAPGCGDTTSSTVTLGCLVKGYFPEPVTVTWNSGALSSDVHTFPAVLQSGLYTLTSSVTSSTWPSQTVTCNVAHPASSTKVDKKVERRNGGIGHKCPTCPTCHKCPVPELLGGPSVFIFPPKPKDILLISQNAKVTCVVVDVSEEEPDVQFSWFVNNVEVHTAQTQPREEQYNSTFRVVSALPIQHQDWMSGKEFKCKVNNKALPSPIEKTISKPKGLVRKPQVYVMGPPTEQLTEQTVSLTCLTSGFLPNDIGVEWTSNGHIEKNYKNTEPVMDSDGSFFMYSKLNVERSRWDSRAPFVCSVVHEGLHNHHVEKSISRPPGK
light: DIQMTQSPSVLSASVGDRVTLNCKASQNVNKYLNWFQQKLGEPPKLLIYNTNNLQTGIPSRFSGSGSGTDYTLTISSLQPEDVATYFCFQHVSWLTFGSGTKLEIKRADAAPTVSIFPPSTEQLATGGASVVCLMNNFYPRDISVKWKIDGTERRDGVLDSVTDQDSKDSTYSMSSTLSLTKADYESHNLYTCEVVHKTSSSPVVKSFNRNEC
notes: Rat IgG2b, kappa, from a hybridoma; the full-length chains were made by linking them to known rat constant regions (IMGT IGHG2B*01, IGKC*01); also called 04-093 antibody; rat anti-GPR20 antibody 04-093
In the case of B1, the binding entry in experiment [1] and in experiment [1] (record 2) was “no binding (tested: 0.247 to 20 nM antibody)” each time.

B2: rabbit chimeric anti-GPR20 antibody OcChimera (antibody)
heavy: EVQLVESGGGLVQPGRSLKLSCVASGFTFNNYWMTWIRQAPGKGLEWVASITNIDGSSYYPDSVKGRFTISRDNVKSTLYLQMNSLRSEDTATYYCTRGSFDYWGQGVMVTVSSGQPKAPSVFPLAPCCGDTPSSTVTLGCLVKGYLPEPVTVTWNSGTLTNGVRTFPSVRQSSGLYSLSSVVSVTSSSQPVTCNVAHPATNTKVDKTVAPSTCSKPTCPPPELLGGPSVFIFPPKPKDTLMISRTPEVTCVVVDVSQDDPEVQFTWYINNEQVRTARPPLREQQFNSTIRVVSTLPITHQDWLRGKEFKCKVHNKALPAPIEKTISKARGQPLEPKVYTMGPPREELSSRSVSLTCMINGFYPSDISVEWEKNGKAEDNYKTTPAVLDSDGSYFLYNKLSVPTSEWQRGDVFTCSVMHEALHNHYTQKSISRSPGK
light: DIQMTQSPSVLSASVGDRVTLNCKASQNVNKYLNWFQQKLGEPPKLLIYNTNNLQTGIPSRFSGSGSGTDYTLTISSLQPEDVATYFCFQHVSWLTFGSGTKLEIKRDPVAPSVLLFPPSKEELTTGTATIVCVANKFYPSDITVTWKVDGTTQQSGIENSKTPQSPEDNTYSLSSTLSLTSAQYNSHSVYTCEVVQGSASPIVQSFNRGDC
notes: 04-093 variable regions on rabbit IGHG*02 and IGKC2*01 constant regions; also called rabbit chimeric antibody; OcHch/OcLch
Consider B2, for which the binding result in experiment [2] and in experiment [3] was “binds” throughout.

B3: rabbit type anti-GPR20 antibody OcH1L1 (antibody, V domains shown)
VH: EVQLKESGGGLVKPGGSLKLCCKASGFTFNNYWMTWIRQAPGKGLEWIASITNIDGSSYYASWVNGRFTLSRDNAQSTVCLQLNSLTAADTATYFCTRGSFDYWGQGTLVTVSS
VL: DIVMTQTPSPVSAAVGGTVTINCKASQNVNKYLNWFQQKPGQPPKLLIYNTNNLQTGVPSRFSGSGSGTDYTLTISGVQCDDAATYYCFQHVSWLTFGGGTEVVVKG
notes: CDR-grafted rabbit type form of 04-093; also called OcH01/OcL01
In the case of B3, the binding result in experiment [2] and in experiment [3] was “binds” throughout.

B4: rabbit type anti-GPR20 antibody OcH2L1 (antibody, V domains shown)
VH: B3 VH with C21S, A61P, S62D, W63S, N65K, L70I, V79L, C80Y
VL: B3 VL
notes: CDR-grafted rabbit type form of 04-093; also called OcH02/OcL01
With B4, the binding result in experiment [2] and in experiment [3] was “binds” in each case.

The values above are taken from patent US20200017583A1 (Daiichi Sankyo, published 2020).
